The text below walks through data of paper doi:10.1101/2024.12.06.24318402.

Results are given in words; binding and its absence hold for the method and conditions named. Binding seen in cells or lysates may run through a third protein. Some results given as binding are weak or reduced against the parent protein; the word gives no strength.

This assay deals with KCNE1 (MinK), modulatory subunit of KCNQ1 (human (endogenous in iPSC-aCMs)) (UniProt P15382). Put plainly: co-IP; anti-KCNE1 (Alomone APC-163) IP from precleared RIPA lysates (500 ug) of WT and TTN-T32756I human iPSC-aCMs, Protein A/G agarose beads, 4°C; immunoblot for FHL2 and MinK.

B1: Four-and-a-Half Lim domains 2 (FHL2) (protein, UniProt Q14192 1-279)
chain: MTERFDCHHCNESLFGKKYILREESPYCVVCFETLFANTCEECGKPIGCDCKDLSYKDRHWHEACFHCSQCRNSLVDKPFAAKEDQLLCTDCYSNEYSSKCQECKKTIMPGTRKMEYKGSSWHETCFICHRCQQPIGTKSFIPKDNQNFCVPCYEKQHAMQCVQCKKPITTGGVTYREQPWHKECFVCTACRKQLSGQRFTARDDFAYCLNCFCDLYAKKCAGCTNPISGLGGTKYISFEERQWHNDCFNCKKCSLSLVGRGFLTERDDILCPDCGKDI
For the molecule B1, the binding entry was “binds”.
